Measured values as given in the supplement of paper PMC3334620.
In all, about 33,000 sequences were measured (“E-score (-0.5 to 0.5)”: median about -0.0059, highest 2% from about 0.26 on). Some of the results follow.

Target: T1, Cin5 (UniProt P40917)
T1 sequence: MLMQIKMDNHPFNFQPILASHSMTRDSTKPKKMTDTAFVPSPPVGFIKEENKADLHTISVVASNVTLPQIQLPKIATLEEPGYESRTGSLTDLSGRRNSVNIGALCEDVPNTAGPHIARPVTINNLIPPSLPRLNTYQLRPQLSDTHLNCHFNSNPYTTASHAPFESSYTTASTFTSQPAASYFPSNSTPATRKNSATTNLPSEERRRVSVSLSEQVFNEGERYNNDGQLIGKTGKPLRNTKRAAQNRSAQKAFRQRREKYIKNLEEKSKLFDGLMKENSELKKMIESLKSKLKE
Assay: PBM E-score (8-mer binding enrichment) (E-score (-0.5 to 0.5)); higher = stronger / more preferred TF binding
Conditions: protein concentration: 100 nM; construct: GST-full length
In short: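 Each ungapped eight-base word and its reverse complement, pooled, received an E-score from the Universal PBM Analysis Suite. Underlying scans, normalised with masliner, recorded fluorescent anti-GST bound to GST-tagged yeast transcription factors. These were applied at about 100-200 nM to universal all-10-mer Agilent arrays double-stranded by primer extension.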

Row | Sequence | PBM E-score
1 | CTTGCGAA | 0.159
2 | ACTGCGTC | -0.141
3 | ACTCGTTC | -0.11
4 | ATCGTCGG | -0.11
5 | CTTGCATC | -0.012
6 | ATGCCGCC | -0.079
7 | CTAATAAC | 0.133
8 | AGTATAGG | -0.0146
9 | CATGCAAC | 0.152
10 | AAAAGACC | -0.124
11 | CCAGCGAC | -0.209
12 | ACTCTTTA | -0.147
13 | AATGCGTA | 0.0514
14 | GTGCGTGA | -0.00123
15 | AGCGACTA | 0.0063
16 | CTCGCGCC | 0.0349
17 | CAAGGCTA | -0.0546
18 | ACATCCTA | 0.112
19 | ATCCGGGC | -0.0665
20 | AATCCCCG | 0.00103
21 | GTTCGATA | 0.181
22 | TAAGTCGA | 0.0638
23 | AGGCCCCC | -0.445
24 | ACGTGAGA | -0.0704
25 | CTGGATAA | -0.0469

Row | Sequence | PBM E-score
26 | ACTTATGA | 0.139
27 | GCTTTTTA | 0.0638
28 | ACCTTGGA | -0.0833
29 | AGAGAGTG | -0.0886
30 | AAAGGTCC | -0.216
31 | CTAGTGTC | -0.0545
32 | GTTCTCGA | -0.0139
33 | AGGACGTG | -0.114
34 | AATTAATT | 0.0929
35 | AGTTCTAA | -0.0624
36 | ACCACGCA | -0.0742
37 | CATACGCC | -0.0108
38 | AGTGACTC | -0.11
39 | GAGTTGGC | -0.0875
40 | AGTAAGGC | 0.0535
41 | CCGGAAGA | -0.00221
42 | AACCGACG | 0.167
43 | AAACCATC | 0.0979
44 | CCCCAATA | -0.028
45 | CGTTGATA | 0.112
46 | GGGCCAAA | -0.1
47 | ATTCAATC | 0.193
48 | GTTCCAGA | -0.0248
49 | GCAGCAGC | -0.14
50 | ACGACGCG | -0.0135

Row | Sequence | PBM E-score
51 | ACGTACAG | -0.0203
52 | CACTGTGG | -0.0807
53 | TAGACTAA | -0.0981
54 | AGGAGATG | -0.0452
55 | GCACATCA | 0.142
56 | GAAGGTCC | -0.111
57 | GGTCAATA | 0.169
58 | ATGGTTCG | 0.0872
59 | CGATGGGA | 0.0109
60 | CCAGGGAA | -0.16
61 | GTGTCACA | 0.0459
62 | TGGGTTAA | -0.12
63 | ACGTTACC | -0.00667
64 | ACACCTGG | -0.205
65 | ATTTGCCA | -0.152
66 | AGATAACT | 0.159
67 | GCGGATCA | -0.00769
68 | TCTCACCA | -0.0168
69 | CATATGCC | 0.0685
70 | GGTGCGTA | -0.205
71 | AAAATTTG | 0.0318
72 | AGCGCTCC | -0.134
73 | GGAGCACA | 0.0111
74 | ATGGTGTA | 0.125
75 | CCACAGCA | -0.0249

Four records drawn at random from those above:
Row | Sequence | PBM E-score
10 | AAAAGACC | -0.124
47 | ATTCAATC | 0.193
59 | CGATGGGA | 0.0109
38 | AGTGACTC | -0.11

(cont.)

Row | Sequence | PBM E-score
76 | CATCTTGC | 0.0581
77 | ACCGCAAT | 0.12
78 | AACACGCG | -0.113
79 | AGCGTAAA | 0.122
80 | CAAAAATC | 0.0297
81 | ATGCTAAA | 0.0838
82 | GTAACCGA | 0.0434
83 | ATGAAGTG | 0.19
84 | CTGAGAGA | -0.266
85 | ATCAGTGC | 0.0756
86 | AAGCTATC | 0.0613
87 | AAAAGCGT | -0.0115
88 | CAGGAACG | -0.0351
89 | ATGTACGA | 0.192
90 | GTAATTCA | 0.142
91 | GCCATGAC | -0.209
92 | ACGGGTAG | -0.187
93 | CGACAGGC | -0.186
94 | ACCTCCAG | -0.181
95 | AAAGTGCC | -0.174
96 | CATTGTTC | 0.121
97 | GCTATTGA | 0.00377
98 | AATAGCCG | -0.0749
99 | ACTTCATA | 0.169
100 | CACGGATA | 0.22

Row | Sequence | PBM E-score
101 | ACAGTGCA | 0.102
102 | ACACATAT | 0.103
103 | CACTAAGG | -0.124
104 | CTGAGGTA | 0.168
105 | GCGTGATA | 0.0149
106 | CAATGACC | -0.172
107 | GCGTGTTA | -0.0317
108 | CCACTTTA | 0.159
109 | CCCTAACG | -0.164
110 | CCAAATTA | 0.187
111 | AAACCGAA | 0.0262
112 | GTTGCTTA | 0.338
113 | CGAGTTTA | 0.0867
114 | AACTTTGC | 0.064
115 | AACATCCG | 0.0506
116 | TCAGCTGA | 0.253
117 | ACCATCCG | 0.00451
118 | ACTTTGCG | 0.0978
119 | ATGAGCAG | -0.0478
120 | ATGCCGGG | -0.199
121 | CCTACACA | 0.0287
122 | ACCCATCG | 0.0212
123 | AATTATAC | 0.208
124 | AAAAGAGA | 0.0667
125 | ACGGTAGA | -0.117

Row | Sequence | PBM E-score
126 | CGGATGAG | 0.0497
127 | AGACAACG | 0.144
128 | ACGTGTCT | -0.101
129 | CCGAGGAA | -0.0167
130 | GCCTCGCA | -0.0129
131 | AATCCACT | 0.0266
132 | CTAAGGCC | -0.2
133 | CATGTAAG | 0.13
134 | CACAAGTA | 0.164
135 | AGAGATCG | -0.0713
136 | AACCGCTC | -0.0305
137 | AGAAGCAA | 0.167
138 | AGGATTGG | -0.109
139 | CCCAACCG | -0.0634
140 | ACAATACG | 0.05
141 | CGACTTCA | -0.0477
142 | ACACACTG | 0.0336
143 | ACCATCGC | 0.0726
144 | ACTTTTGA | 0.0205
145 | GGAGAGTA | -0.0903
146 | TCTTAGAA | 0.0741
147 | CACTTATA | 0.0564
148 | ACTGCAAG | -0.128
149 | CCAGAGTA | 0.0143
150 | CTGCCAGC | -0.211

Row | Sequence | PBM E-score
151 | AAGTAGGT | -0.0742
152 | GTGTAAAA | 0.0726
153 | ATTTTAAA | 0.184
154 | CTCCTATC | -0.0307
155 | ATGCGGGA | 0.0954
156 | GGTCTATA | 0.0119
157 | AGTGGGCC | -0.322
158 | CTTGCCAC | -0.165
159 | GTTGGGCA | -0.00142
160 | AGTGCTTA | 0.199
161 | GGTATTGA | 0.0194
162 | GCCTTTAC | -0.0984
163 | AATACACT | 0.0899
164 | CCCTGCCA | -0.0277
165 | CCAGGCAG | -0.248
166 | AAATCGTT | 0.143
167 | ACAAATAG | 0.0996
168 | CACCCCAA | 0.111
169 | CCCGTTTA | 0.069
170 | ACGTTTTA | 0.0371
171 | GACTATAC | 0.124
172 | TACCTTAA | -0.0244

Excerpt: nos. 153 to 155
Row | Sequence | PBM E-score
153 | ATTTTAAA | 0.184
154 | CTCCTATC | -0.0307
155 | ATGCGGGA | 0.0954

Five entries from above, with tabs:
Row	Sequence	PBM E-score
132	CTAAGGCC	-0.2
133	CATGTAAG	0.13
134	CACAAGTA	0.164
135	AGAGATCG	-0.0713
136	AACCGCTC	-0.0305
